{"source": "the supplement of paper PMC8728848", "binders": {"B1": {"name": "TAL6-6LysM (Trichoderma atroviride) (protein)", "chain": "AASKLGVPQPAQRDQVNCQLYAVQPNDNCIDISSKNNITYAQLLSWNPSLSSTCSNLASLNSSSICVSNPKGTFSISSNTVGATDIATTTAPVPSPTLDQTTSRCAKYYQVSDGDDCSHLTAQFAITLKDFIFLNSEVWQNCTNLELGYYYCVEPVGYISTYPGYLPTATTKPFNQTSATSLPYDGDPWARFSSNSSVIPIANGTRVDCYSYVYVKNLTENLFADCWNMASMYEITREELVLWNPSLGNDGSSGSNLSGAEASQVASSIAIPTTAPSSITTNLYTYPCTVAANISYCVALVSSTGALPTNTAPPGPHASGEISNCTAWFAPEAYDTCKSILDIFEMSFANFYKMNPSVGPDCSGLAVGTNYCVSTYPNGEDPNDDWDGDDSIPSISPTGIITPTPTQSGMVSNCNKFYDVHSNDGCSAIASSQHVDLSSLYKWNPAIKTDCSGLQASVYVCIGILTTSMSTTSKLPTTTSKPSTTSKPPTGITTPTPTQSGMVKNCNKFYDVHSGDGCSAIASSQKVNLSSFYLWNPAVKTDCSGLQASVFVCIGTLTTSMSTTTSKLPTTTSKPSTTSKPPTGIITPTPTQNGMVKNCNKFYDVHSGDGCSAIASSQKVNLSSFYLWNPAVKTDCSGLQASVFVCVGTATTTTAAGITTPTPTQSGMVSGCNKFYDVHAGDGCSAIASSQKIALSSLYKWNPAVKTDCSGLQASVYICIGVGNAAAARVTGAAASFLEQKLISEEDLNSAVDHHHHHH"}}, "assay_in_all_cases": "glycan array binding signal (z-score within array); higher = stronger binding", "details_in_all_cases": "glycan notation: IUPAC condensed, linker removed", "key": {"[1]": {"molecular_target": "Gal(b1-4)Glc", "in_short": "(§1)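 Columns mapping to the same glycan were averaged after glycan names were converted to IUPAC-condensed notation. The data come from 3228 arrays in the Consortium for Functional Glycomics database, limited to those with an available protein sequence. Binding is reported as a within-array Z-score averaged across arrays of one protein sequence and across linkers.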"}, "[2]": {"molecular_target": "Gal(b1-4)Glc6S", "in_short": "as §1"}, "[3]": {"molecular_target": "Gal(b1-4)GlcNAc", "in_short": "as §1"}, "[4]": {"molecular_target": "Gal(b1-4)GlcNAc(a1-6)Gal(b1-4)GlcNAc", "in_short": "as §1"}, "[5]": {"molecular_target": "Gal(b1-4)GlcNAc(b1-2)Man", "in_short": "as §1"}, "[6]": {"molecular_target": "Gal(b1-4)GlcNAc(b1-2)Man(a1-3)Man(b1-4)GlcNAc(b1-4)GlcNAc", "in_short": "as §1"}, "[7]": {"molecular_target": "Gal(b1-4)GlcNAc(b1-2)Man(a1-3)[Gal(b1-4)GlcNAc(b1-2)Man(a1-6)]Man(b1-4)GlcNAc(b1-4)GlcNAc", "in_short": "as §1"}, "[8]": {"molecular_target": "Gal(b1-4)GlcNAc(b1-2)Man(a1-3)[Gal(b1-4)GlcNAc(b1-2)Man(a1-6)]Man(b1-4)GlcNAc(b1-4)[Fuc(a1-6)]GlcNAc", "in_short": "as §1"}, "[9]": {"molecular_target": "Gal(b1-4)GlcNAc(b1-2)Man(a1-3)[Gal(b1-4)GlcNAc(b1-2)Man(a1-6)][Gal(b1-4)GlcNAc(b1-4)]Man(b1-4)GlcNAc(b1-4)[Fuc(a1-6)]GlcNAc", "in_short": "as §1"}, "[10]": {"molecular_target": "Gal(b1-4)GlcNAc(b1-2)Man(a1-3)[Gal(b1-4)GlcNAc(b1-2)Man(a1-6)][GlcNAc(b1-4)]Man(b1-4)GlcNAc(b1-4)[Fuc(a1-6)]GlcNAc", "in_short": "as §1"}, "[11]": {"molecular_target": "Gal(b1-4)GlcNAc(b1-2)Man(a1-3)[GlcNAc(b1-2)Man(a1-6)]Man(b1-4)GlcNAc(b1-4)GlcNAc", "in_short": "as §1"}, "[12]": {"molecular_target": "Gal(b1-4)GlcNAc(b1-2)Man(a1-3)[GlcNAc(b1-4)][Gal(b1-4)GlcNAc(b1-2)Man(a1-6)]Man(b1-4)GlcNAc(b1-4)GlcNAc", "in_short": "as §1"}, "[13]": {"molecular_target": "Gal(b1-4)GlcNAc(b1-2)Man(a1-3)[Man(a1-6)]Man(b1-4)GlcNAc(b1-4)GlcNAc", "in_short": "as §1"}, "[14]": {"molecular_target": "Gal(b1-4)GlcNAc(b1-2)Man(a1-6)Man(b1-4)GlcNAc(b1-4)GlcNAc", "in_short": "as §1"}, "[15]": {"molecular_target": "Gal(b1-4)GlcNAc(b1-2)Man(a1-6)[GlcNAc(b1-2)Man(a1-3)]Man(b1-4)GlcNAc(b1-4)GlcNAc", "in_short": "as §1"}, "[16]": {"molecular_target": "Gal(b1-4)GlcNAc(b1-2)Man(a1-6)[Man(a1-3)]Man(b1-4)GlcNAc(b1-4)GlcNAc", "in_short": "as §1"}, "[17]": {"molecular_target": "Gal(b1-4)GlcNAc(b1-2)[Gal(b1-4)GlcNAc(b1-4)]Man(a1-3)[Gal(b1-4)GlcNAc(b1-2)Man(a1-6)]Man(b1-4)GlcNAc(b1-4)GlcNAc", "in_short": "as §1"}, "[18]": {"molecular_target": "Gal(b1-4)GlcNAc(b1-2)[Gal(b1-4)GlcNAc(b1-4)]Man(a1-3)[Gal(b1-4)GlcNAc(b1-2)[Gal(b1-4)GlcNAc(b1-6)]Man(a1-6)]Man(b1-4)GlcNAc(b1-4)GlcNAc", "in_short": "as §1"}, "[19]": {"molecular_target": "Gal(b1-4)GlcNAc(b1-2)[Gal(b1-4)GlcNAc(b1-4)]Man(a1-3)[GlcNAc(b1-4)][Gal(b1-4)GlcNAc(b1-2)Man(a1-6)]Man(b1-4)GlcNAc(b1-4)GlcNAc", "in_short": "as §1"}, "[20]": {"molecular_target": "Gal(b1-4)GlcNAc(b1-2)[Gal(b1-4)GlcNAc(b1-4)]Man(a1-3)[GlcNAc(b1-4)][Gal(b1-4)GlcNAc(b1-2)[Gal(b1-4)GlcNAc(b1-6)]Man(a1-6)]Man(b1-4)GlcNAc(b1-4)GlcNAc", "in_short": "as §1"}, "[21]": {"molecular_target": "Gal(b1-4)GlcNAc(b1-2)[Gal(b1-4)GlcNAc(b1-6)]Man(a1-6)[Gal(b1-4)GlcNAc(b1-2)Man(a1-3)]Man(b1-4)GlcNAc(b1-4)GlcNAc", "in_short": "as §1"}, "[22]": {"molecular_target": "Gal(b1-4)GlcNAc(b1-2)[Gal(b1-4)GlcNAc(b1-6)]Man(a1-6)[Gal(b1-4)GlcNAc(b1-2)Man(a1-3)]Man(b1-4)GlcNAc(b1-4)[Fuc(a1-6)]GlcNAc", "in_short": "as §1"}, "[23]": {"molecular_target": "Gal(b1-4)GlcNAc(b1-2)[Gal(b1-4)GlcNAc(b1-6)]Man(a1-6)[GlcNAc(b1-4)][Gal(b1-4)GlcNAc(b1-2)Man(a1-3)]Man(b1-4)GlcNAc(b1-4)GlcNAc", "in_short": "as §1"}, "[24]": {"molecular_target": "Gal(b1-4)GlcNAc(b1-2)[Gal(b1-4)GlcNAc(b1-6)]Man(a1-6)[GlcNAc(b1-4)][Gal(b1-4)GlcNAc(b1-2)[Gal(b1-4)GlcNAc(b1-4)]Man(a1-3)]Man(b1-4)GlcNAc(b1-4)[Fuc(a1-6)]GlcNAc", "in_short": "as §1"}, "[25]": {"molecular_target": "Gal(b1-4)GlcNAc(b1-3)Gal(b1-3)GalNAc", "in_short": "as §1"}, "[26]": {"molecular_target": "Gal(b1-4)GlcNAc(b1-3)Gal(b1-3)GlcNAc", "in_short": "as §1"}, "[27]": {"molecular_target": "Gal(b1-4)GlcNAc(b1-3)Gal(b1-4)Glc", "in_short": "as §1"}, "[28]": {"molecular_target": "Gal(b1-4)GlcNAc(b1-3)Gal(b1-4)GlcNAc", "in_short": "as §1"}, "[29]": {"molecular_target": "Gal(b1-4)GlcNAc(b1-3)Gal(b1-4)GlcNAc(b1-2)Man(a1-3)[Gal(b1-4)GlcNAc(b1-3)Gal(b1-4)GlcNAc(b1-2)Man(a1-6)]Man(b1-4)GlcNAc(b1-4)GlcNAc", "in_short": "as §1"}, "[30]": {"molecular_target": "Gal(b1-4)GlcNAc(b1-3)Gal(b1-4)GlcNAc(b1-2)Man(a1-3)[Gal(b1-4)GlcNAc(b1-3)Gal(b1-4)GlcNAc(b1-2)Man(a1-6)]Man(b1-4)GlcNAc(b1-4)[Fuc(a1-6)]GlcNAc", "in_short": "as §1"}}, "note": "This is one part of the list."}
{"binder": "B1", "values": [{"measurement": "glycan array binding signal (z-score)", "setting": "[1]", "value": 0.668}, {"measurement": "glycan array binding signal (z-score)", "setting": "[2]", "value": -1.08}, {"measurement": "glycan array binding signal (z-score)", "setting": "[3]", "value": -0.744}, {"measurement": "glycan array binding signal (z-score)", "setting": "[4]", "value": -0.177}, {"measurement": "glycan array binding signal (z-score)", "setting": "[5]", "value": 0.067}, {"measurement": "glycan array binding signal (z-score)", "setting": "[6]", "value": -0.341}, {"measurement": "glycan array binding signal (z-score)", "setting": "[7]", "value": 0.479}, {"measurement": "glycan array binding signal (z-score)", "setting": "[8]", "value": -1.43}, {"measurement": "glycan array binding signal (z-score)", "setting": "[9]", "value": -1.24}, {"measurement": "glycan array binding signal (z-score)", "setting": "[10]", "value": 0.551}, {"measurement": "glycan array binding signal (z-score)", "setting": "[11]", "value": -0.218}, {"measurement": "glycan array binding signal (z-score)", "setting": "[12]", "value": 0.569}, {"measurement": "glycan array binding signal (z-score)", "setting": "[13]", "value": -1.59}, {"measurement": "glycan array binding signal (z-score)", "setting": "[14]", "value": -0.133}, {"measurement": "glycan array binding signal (z-score)", "setting": "[15]", "value": -0.648}, {"measurement": "glycan array binding signal (z-score)", "setting": "[16]", "value": 0.445}, {"measurement": "glycan array binding signal (z-score)", "setting": "[17]", "value": 0.34}, {"measurement": "glycan array binding signal (z-score)", "setting": "[18]", "value": -0.57}, {"measurement": "glycan array binding signal (z-score)", "setting": "[19]", "value": -1.11}, {"measurement": "glycan array binding signal (z-score)", "setting": "[20]", "value": 1.24}, {"measurement": "glycan array binding signal (z-score)", "setting": "[21]", "value": -0.31}, {"measurement": "glycan array binding signal (z-score)", "setting": "[22]", "value": -1.18}, {"measurement": "glycan array binding signal (z-score)", "setting": "[23]", "value": -0.994}, {"measurement": "glycan array binding signal (z-score)", "setting": "[24]", "value": 0.537}, {"measurement": "glycan array binding signal (z-score)", "setting": "[25]", "value": -0.573}, {"measurement": "glycan array binding signal (z-score)", "setting": "[26]", "value": -1.82}, {"measurement": "glycan array binding signal (z-score)", "setting": "[27]", "value": -0.432}, {"measurement": "glycan array binding signal (z-score)", "setting": "[28]", "value": -1.18}, {"measurement": "glycan array binding signal (z-score)", "setting": "[29]", "value": -0.047}, {"measurement": "glycan array binding signal (z-score)", "setting": "[30]", "value": 0.712}]}
